PubChem BioAssay AID1224828, NIAID – 2016
The whole screen tested about 17,000 reagents; shown is an unselected part. 762 of all reagents (4.5%) count as active. 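Active calls include both raised and lowered p65 entry, mostly lowered; wells with fewer than 50 cells lack a z-score.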 Raw values are not corrected between plates. Entries without a mark were called inactive.

- Aim: 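Regulators linking TLR4 signalling to p65 nuclear translocation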 (primary screen)
- System: mouse RAW264.7 G9 macrophage reporter cells (GFP-p65, Tnf promoter-mCherry)
- Knock-down reagent: siRNA pool against mouse genes, 100 nM
- Timing: 2 days siRNA transfection, then 40 min LPS before fixation
- Treatment: LPS (Salmonella minnesota R595) at 10 ng/ml
- Measured: 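Imaged p65 nuclear translocation ratio, normalised to the plate median, converted to robust z-scores and averaged across two replicates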
- Scale: p65 translocation robust z-score: higher = more nuclear NF-kappaB p65 after LPS than the plate median; nuclear/cytoplasmic p65 ratio: higher = more nuclear NF-kappaB p65
- Active means: 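Active if robust z is above 3.3 (negative regulators) or below -1.56, the Tlr4 control median (positive regulators); activity score 50 or more; control wells not called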
- Meaning of the calls: active = hit (p65 shift raised or lowered); inactive = no clear change

Silencing of Trp53rkb (transformation related protein 53 regulating kinase B) resulted in: p65 translocation robust z-score -0.77; nuclear/cytoplasmic p65 ratio, rep 1 = 1.47; nuclear/cytoplasmic p65 ratio, rep 2 = 1.29; low cell count flag enough cells to score. Against Nfatc2ip, the entry reads p65 translocation robust z-score -1.69 (active); nuclear/cytoplasmic p65 ratio, rep 1 = 1.48; nuclear/cytoplasmic p65 ratio, rep 2 = 1.36; low cell count flag enough cells to score. For Dnase1 (deoxyribonuclease I), the values are p65 translocation robust z-score -0.05; nuclear/cytoplasmic p65 ratio, rep 1 = 1.42; nuclear/cytoplasmic p65 ratio, rep 2 = 1.41; low cell count flag enough cells to score. With knock-down of Ffar4 (free fatty acid receptor 4), the record shows p65 translocation robust z-score 0.42; nuclear/cytoplasmic p65 ratio, rep 1 = 1.47; nuclear/cytoplasmic p65 ratio, rep 2 = 1.45; low cell count flag enough cells to score. For Prkar2b (protein kinase, cAMP dependent regulatory, type II beta) the deposit lists p65 translocation robust z-score -0.09; nuclear/cytoplasmic p65 ratio, rep 1 = 1.47; nuclear/cytoplasmic p65 ratio, rep 2 = 1.36; low cell count flag enough cells to score. For Cyp2c38 (cytochrome P450, family 2, subfamily c, polypeptide 38) the deposit lists p65 translocation robust z-score -0.76; nuclear/cytoplasmic p65 ratio, rep 1 = 1.44; nuclear/cytoplasmic p65 ratio, rep 2 = 1.69; low cell count flag enough cells to score.

Knock-down of Folr2 (folate receptor beta) resulted in: p65 translocation robust z-score 1.48; nuclear/cytoplasmic p65 ratio, rep 1 = 1.72; nuclear/cytoplasmic p65 ratio, rep 2 = 1.47; low cell count flag enough cells to score. Eif2ak3 (eukaryotic translation initiation factor 2 alpha kinase 3) scored p65 translocation robust z-score -0.08; nuclear/cytoplasmic p65 ratio, rep 1 = 1.65; nuclear/cytoplasmic p65 ratio, rep 2 = 1.39; low cell count flag enough cells to score. For Rmnd5b (required for meiotic nuclear division 5 homolog B) the deposit lists p65 translocation robust z-score -0.99; nuclear/cytoplasmic p65 ratio, rep 1 = 1.31; nuclear/cytoplasmic p65 ratio, rep 2 = 1.4; low cell count flag enough cells to score. Defa-rs2 (defensin, alpha, related sequence 2) gave p65 translocation robust z-score 0.08; nuclear/cytoplasmic p65 ratio, rep 1 = 1.45; nuclear/cytoplasmic p65 ratio, rep 2 = 1.39; low cell count flag enough cells to score. For Atp1b2 (ATPase, Na+/K+ transporting, beta 2 polypeptide), the entry reads p65 translocation robust z-score -0.12; nuclear/cytoplasmic p65 ratio, rep 1 = 1.44; nuclear/cytoplasmic p65 ratio, rep 2 = 1.64; low cell count flag enough cells to score. Vps26c (VPS26 endosomal protein sorting factor C) scored p65 translocation robust z-score -0.24; nuclear/cytoplasmic p65 ratio, rep 1 = 1.45; nuclear/cytoplasmic p65 ratio, rep 2 = 1.31; low cell count flag enough cells to score.

Knock-down of Echdc1 (enoyl Coenzyme A hydratase domain containing 1) came out at: p65 translocation robust z-score -0.92; nuclear/cytoplasmic p65 ratio, rep 1 = 1.38; nuclear/cytoplasmic p65 ratio, rep 2 = 1.21; low cell count flag enough cells to score. Depletion of Gpn3 (GPN-loop GTPase 3) gave: nuclear/cytoplasmic p65 ratio, rep 1 = 1.31; nuclear/cytoplasmic p65 ratio, rep 2 = 1.6; low cell count flag fewer than 50 cells per well; well left out of scoring. After knock-down of Heatr3 (HEAT repeat containing 3), the screen gave nuclear/cytoplasmic p65 ratio, rep 1 = 1.76; nuclear/cytoplasmic p65 ratio, rep 2 = 1.77; low cell count flag fewer than 50 cells per well; well left out of scoring. Silencing of Rnaset2b (ribonuclease T2B) resulted in: p65 translocation robust z-score 0.52; nuclear/cytoplasmic p65 ratio, rep 1 = 1.6; nuclear/cytoplasmic p65 ratio, rep 2 = 1.65; low cell count flag enough cells to score. With knock-down of Casp8ap2 (caspase 8 associated protein 2), the screen gave p65 translocation robust z-score 0.57; nuclear/cytoplasmic p65 ratio, rep 1 = 1.68; nuclear/cytoplasmic p65 ratio, rep 2 = 1.72; low cell count flag enough cells to score. Camk2b (calcium/calmodulin-dependent protein kinase II, beta) gave p65 translocation robust z-score 0.77; nuclear/cytoplasmic p65 ratio, rep 1 = 1.88; nuclear/cytoplasmic p65 ratio, rep 2 = 1.43; low cell count flag enough cells to score.

With knock-down of Slc18a1, the screen gave p65 translocation robust z-score 0.47; nuclear/cytoplasmic p65 ratio, rep 1 = 1.43; nuclear/cytoplasmic p65 ratio, rep 2 = 1.34; low cell count flag enough cells to score. After knock-down of Plcg1 (phospholipase C, gamma 1), the record shows p65 translocation robust z-score 1.42; nuclear/cytoplasmic p65 ratio, rep 1 = 1.66; nuclear/cytoplasmic p65 ratio, rep 2 = 1.62; low cell count flag enough cells to score. Silencing of Phf21a (PHD finger protein 21A) gave: nuclear/cytoplasmic p65 ratio, rep 1 = 1.26; nuclear/cytoplasmic p65 ratio, rep 2 = 1.23; low cell count flag fewer than 50 cells per well; well left out of scoring.

Active calls, among the entries above:
Nfatc2ip: p65 translocation robust z-score = -1.69 (active); nuclear/cytoplasmic p65 ratio, rep 1 = 1.48; nuclear/cytoplasmic p65 ratio, rep 2 = 1.36; low cell count flag = enough cells to score
